Experimental findings from article doi:10.1101/2021.05.14.443827 are described below.

The target in test [1] is SiiA-3×Flag (Salmonella enterica serovar Typhimurium) (UniProt H9L4G5). The test is described as follows: affinity purification with mass spectrometry.
The target in test [2] is SiiB-3×Flag (Salmonella enterica serovar Typhimurium). The test is described as follows: affinity purification with mass spectrometry.

Results are given in words; binding and its absence hold for the method and conditions named. Binding seen in cells or lysates may run through a third protein. These calls come from enrichment with a bait or labelling near it, and not all partners need be listed.

With CheM (from UniProt P02941 1-553), the binding result in test [1] and in test [2] was “binds” throughout.
As for Trg (from UniProt A0A0F6B1Q1), in test [1], the binding result is given as “binds”.
